Test results: PubChem BioAssay AID624291 (National Center for Advancing Translational Sciences (NCATS), 2012)
Among all 350,000 compounds or so, about 220 (0.063%) were called active. Inconclusive results, whose numbers are uncertain, are shown with a selection of clear calls. The call rests on the fitted dose curve; in most records, active means well fitted activation curve with a large enough effect; inconclusive means small, poorly fitted or top-dose-only effect; inactive means no such curve, though single readings can be large or run the other way. Potencies beside an inconclusive call are fits to weak or partial responses and may not hold up.

test: qHTS for Activators of Integrin-Mediated Alleviation for Muscular Dystrophy; conditions: alpha7betagal myoblasts, beta-gal FDG fluorescence, 48 h; activation: at 38.3 µM (top of the series); further: nearly all actives have a fitted effect of over 60% in size;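 on activation: 100% = response of the positive control SU9516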
How it was run: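 Alpha7betagal+/- myoblasts (passage 13) were plated 16-24 hr, then exposed to compounds (1:260 dilution of DMSO stock) for 48 hours at 37C. After MPER lysis, β-galactosidase reporter activity was read as FDG fluorescence (ex 480/em 540) after 30 minutes.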
Potency means the concentration at half of the fitted maximal effect.

| SMILES | Potency | activation |
| --- | --- | --- |
| O=C(COc1ccc(Cl)cc1)N1CCN(C2CCCC2)CC1 | inconclusive: 11.2 µM [activator, partial curve] | – |
| CCC1CO/C(=C(\C(Cl)=C(Cl)Cl)[N+](=O)[O-])N1Cc1ccc(Cl)nc1 (stereo not drawn) | inconclusive: 28.2 µM [activator, single point] | – |
| CC12CC[C@H]3[C@@H](CCC4(O)C[C@H](O)CCC34/C=N/NC(=O)c3ccc(O)cc3)C1(O)CCC2C1=CC(=O)OC1 (stereo partly drawn) | inactive | – |
| O=[N+]([O-])/C=C1\NCCN1Cc1ccc(Cl)nc1 | inconclusive: 5.01 µM [activator, partial curve, poor fit] | – |
| N#Cc1cn(C2OC(CO)C(O)C2O)c2ncnc(N)c12 (stereo not drawn) | – | inconclusive: -56% [activator] |
| Cc1[nH]n(-c2ccccc2)c(=O)c1C(c1cccc([N+](=O)[O-])c1O)c1c(C)[nH]n(-c2ccccc2)c1=O | inconclusive: 28.2 µM [activator, single point] | – |
| Cc1cc(C(=O)Nc2ccc3c(c2)OCCO3)nn1C(C)(C)C | inconclusive: 10 µM [activator, partial curve, poor fit] | – |
| CC1=C(C(=O)Nc2ccccc2)S(=O)(=O)CCO1 | inconclusive: 22.4 µM [activator, single point] | – |
| COc1cccc(C(=O)C2CN(C)CC2c2ccc(Cl)cc2)c1 (stereo not drawn) | inconclusive: 28.2 µM [activator, single point] | – |
| COc1ccccc1OCC#CCN1CCCCCC1 | inactive | – |
| CC(C)OP(=O)(O)NC(=O)c1ccccc1 | inconclusive: 8.91 µM [activator, partial curve, poor fit] | – |
| CN1CCN(c2cc([N+](=O)[O-])ccc2Cl)CC1 | inconclusive: 1 µM [activator, partial curve, poor fit] | – |
| CP(=O)(Nc1ccc(Cl)cc1)c1nc2c(s1)CCCC2 (stereo not drawn) | inconclusive: 2 µM [activator, full curve, poor fit] | – |
| COC(=O)C12OCC34C(CC5C(C)=C(O)C(=O)CC5(C)C3C(O)C1O)OC(=O)C(OC(=O)/C=C(\C)C(C)C)C24 (stereo not drawn) | – | inconclusive: -1.36% [activator] |
| O=c1cccc2n1CC1CC2CN(Cc2ccc3c(c2)OCO3)C1 (stereo not drawn) | inconclusive: 7.94 µM [activator, partial curve, poor fit] | – |
| O=C1NC(=O)N(c2ccc3c(c2)OCO3)C(=O)/C1=C/c1ccsc1 | inconclusive: 22.4 µM [activator, single point] | – |
| Cc1ccc(/C=C2/C(=O)NC(=O)N(CCc3ccc(F)cc3)C2=O)o1 | inactive | – |
| COC1CCC(OC2CC(C3(C)CCC4(CC(O)C(C)C(C(C)/C=C(\C)C(=O)C(C)CC(C)C(=O)O)O4)O3)OC3(OC(C4OC(O)(CO)C(C)CC4C)CC3C)C2C)OC1C (stereo not drawn) | – | inconclusive: -58.8% [activator] |
| CSc1ccccc1NP1(=O)OCC(C)([N+](=O)[O-])CO1 (stereo not drawn) | inconclusive: 5.01 µM [activator, single point] | – |
| COP(=O)(OC)C(Nc1ccc([N+](=O)[O-])cc1)c1ccccc1 (stereo not drawn) | inconclusive: 5.01 µM [activator, single point] | – |
| CN(C)c1ccc(N=Cc2c(O)n(CCC3=CCCCC3)c(=O)[nH]c2=O)cc1 | inactive | – |
| CC(C)(C)P(=O)(NCc1ccccc1)c1ccccc1 (stereo not drawn) | inactive | – |
| COc1ccc(-n2c(O)c(C(C)=NC3CC3)c(=O)[nH]c2=O)cc1 | inactive | – |

| SMILES | Potency | activation |
| --- | --- | --- |
| Cc1ccccc1-n1c(O)c(/C=N/NC(=O)c2ccccc2O)c(=O)[nH]c1=S | inconclusive: 5.01 µM [activator, single point] | – |
| CN(C)C(=O)Oc1noc2cc(Cl)ccc12 | inconclusive: 28.2 µM [activator, single point] | – |
| CCCNS(=O)(=O)c1ccc(OCC(=O)N2CCN(C)CC2)cc1 | inconclusive: 28.2 µM [activator, single point] | – |
| Cc1ccc(C)c(NP(=O)(Oc2ccccc2)Oc2ccccc2)c1 | inconclusive: 28.2 µM [activator, single point] | – |
| CCC(C)NC(=O)c1c(N)n(CCCOC)c2nc3ccccc3nc12 (stereo not drawn) | inactive | – |
| CCOC(=O)C1CCN(/C=C2/C(=O)NC(=O)N(c3ccc(OCC)cc3)C2=O)CC1 | inconclusive: 11.2 µM [activator, single point] | – |
| Cc1ccc2c(c1)c(C1=c3ccccc3=NC1=O)c(O)n2C | inactive | – |
| O=[N+]([O-])c1c(Cl)c(Cl)c(Cl)c(Cl)c1Cl | inactive | – |
| COc1ccc(CCNCc2cc(OC)cc(OC)c2)cc1 | inactive | – |
| CC(C)(O)/C=C/C(=O)[C@](C)(O)C1[C@H](O)C[C@@]2(C)C3CC=C4C(C[C@H](O)[C@@H](O)C4(C)C)[C@]3(C)C(=O)C[C@]12C (stereo partly drawn) | inactive | – |
| COc1ccc(CN2CC=C(c3ccc(F)cc3)CC2)cc1Br | inactive | – |
| COc1ccccc1-n1c(-c2ccccc2Br)nc2ccccc2c1=O | inconclusive: 8.91 µM [activator, partial curve, poor fit] | – |
| Cc1cc(C)c(C(=O)CN2CCOCC2)c(C)c1 | inactive | – |
| O=Cc1c(NCc2ccc(Cl)cc2)c2ccccc2[nH]c1=O | inconclusive: 1.12 µM [activator, single point] | – |
| COC(=O)C1=C(c2ccc(F)cc2F)C[C@@H]2CC[C@H]1N2C(=O)NC1Cc2ccccc2C1 | inactive | – |
| CCOC(=O)C1(c2ccccc2)Oc2ccccc2C(c2ccc(OC)cc2)=C1C(=O)OC (stereo not drawn) | inactive | – |
| O=C(Cc1c(Cl)cccc1Cl)N1CCN(Cc2ccccc2)CC1 | inconclusive: 8.91 µM [activator, partial curve, poor fit] | – |
| CCOC(=O)c1sc2ccccc2c1NC(=O)c1coc2ccccc2c1=O | inconclusive: 5.01 µM [activator, partial curve, poor fit] | – |
| Cc1cccc(-n2c(-c3ccc([N+](=O)[O-])cc3)nc3ccccc3c2=O)c1 | inconclusive: 1.26 µM [activator, partial curve, poor fit] | – |
| COc1ccc(OC)c(NC(=O)C2C(C(=O)O)C3(Cl)C(Cl)=C(Cl)C2(Cl)C3(Cl)Cl)c1 (stereo not drawn) | inconclusive: 10 µM [activator, partial curve, poor fit] | – |
| CC1=C(N2CC2)C(=O)C(CO)=C(N2CC2)C1=O | – | inconclusive: -60% [activator] |
| CC(C(=O)c1c[nH]c2ccccc12)N1CCOCC1 (stereo not drawn) | inconclusive: 3.55 µM [activator, single point] | – |
| O=C(Cc1ccccc1)N1CCN(Cc2ccc(F)cc2)CC1 | inconclusive: 28.2 µM [activator, single point] | – |

Some values from the entries so far:
In Potency, `O=C(COc1ccc(Cl)cc1)N1CCN(C2CCCC2)CC1` is listed with inconclusive: 11.2 µM [activator, partial curve]
In Potency, `COc1ccc(CN2CC=C(c3ccc(F)cc3)CC2)cc1Br` is listed with inactive
In Potency, `CN1CCN(c2cc([N+](=O)[O-])ccc2Cl)CC1` is listed with inconclusive: 1 µM [activator, partial curve, poor fit]

As a working copy, some entries already given.

| SMILES | Potency | activation |
| --- | --- | --- |
| CCC(C)NC(=O)c1c(N)n(CCCOC)c2nc3ccccc3nc12 (stereo not drawn) | inactive | – |
| CCOC(=O)C1CCN(/C=C2/C(=O)NC(=O)N(c3ccc(OCC)cc3)C2=O)CC1 | inconclusive: 11.2 µM [activator, single point] | – |

The listing continues:

| SMILES | Potency | activation |
| --- | --- | --- |
| CN(C(=O)Oc1ccc(C(=O)c2ccc(Cl)cc2)cc1)c1ccccc1 | inactive | – |
| CCCCCCN1CCN(c2ccc(Cl)cc2)CC1 | inactive | – |
| COCCN1C(=O)NC(=O)/C(=C\c2ccc(F)cc2)C1=O | inconclusive: 11.2 µM [activator, single point] | – |
| COc1ccccc1OCC(=O)N1CCCC(N2CCN(c3ccc(F)cc3)CC2)C1 (stereo not drawn) | inactive | – |
| Brc1ccc(-[n+]2c(-c3ccccc3)cc(-c3ccccc3)cc2-c2ccccc2)cc1 | inactive | – |
| CC(=O)OC1C(O)C(C)OC(OC2C(OC(=O)C3CCC4C(C3)OC3(CC(OC(=O)/C=C/c5ccccc5)C(C)CO3)C43CO3)OC(C)C(O)C2OC(C)=O)C1O (stereo not drawn) | – | inconclusive: -53.8% [activator] |
| COc1ccc(CNCCc2c[nH]c3ccccc23)c(OC)c1OC | inconclusive: 3.16 µM [activator, single point] | – |
| O=C(O)CNC1c2ccccc2CSc2ccccc21 (stereo not drawn) | inconclusive: 10 µM [activator, partial curve, poor fit] | – |
| CN1CCC2(CC1)NC(=O)c1ccccc1N2 | inactive | – |
| COc1ccc(-c2cc(C(=O)N3CCC4(CC3)OCCO4)c3ccccc3n2)cc1 | inactive | – |
| CN(C)C(Cc1ccccc1)C(=O)c1c[nH]c2ccccc12 (stereo not drawn) | inconclusive: 0.316 µM [activator, full curve, poor fit] | – |
| N=C1c2ccccc2CN1c1ccc(F)c([N+](=O)[O-])c1 | inactive | – |
| O=C(CSc1ccccc1)Nc1ccc(C(=O)Nc2cccc(O)c2)cc1 | inconclusive: 5.01 µM [activator, single point] | – |
| CCCCn1c(C)c(C(=O)O)c2cc(OC)c3ccccc3c21 | inconclusive: 2 µM [activator, single point] | – |
| COC(=O)C1=C(c2ccc(C(C)=O)cc2)C[C@@H]2CC[C@H]1N2C(=O)NCC1CC1 | inconclusive: 1.78 µM [activator, full curve, poor fit] | – |
| C[N+]12CCC(CC1)C(=C(c1ccccc1)c1ccccc1)C2 | inactive | – |
| Cc1ccccc1-n1c(O)c(C(c2ccncc2)c2c(O)n(-c3ccccc3C)c(=O)[nH]c2=O)c(=O)[nH]c1=O | inconclusive: 12.6 µM [activator, single point] | – |
| Cc1ccc(OC(=O)N(C)C[C@@H]2OCc3cnnn3CCCC(=O)N([C@@H](C)CO)C[C@H]2C)cc1 | inactive | – |
| CC(=O)O[C@@]12CO[C@@H]1C[C@H](O)[C@@]1(C)C(=O)[C@H](O)C3=C(C)[C@@H](OC(=O)[C@H](O)[C@@H](NC(=O)c4ccccc4)c4ccccc4)C[C@@](O)([C@@H](OC(=O)c4ccccc4)C12)C3(C)C (stereo partly drawn) | inactive | – |
| Cc1nc2ccc(OC(=O)c3ccccc3)cc2s1 | inconclusive: 1.58 µM [activator, partial curve, poor fit] | – |
| COC(=O)C1=C(c2ccc(F)cc2OCc2ccccc2)C[C@@H]2CC[C@H]1N2C(=O)NCCN1CCOCC1 | inactive | – |
| CCC1(NS(=O)(=O)c2ccc(N)cc2)C(=O)N(C)C(=O)N(C)C1=O | inactive | – |
